Assay results as given in PMC8492323.
Results are given in words; binding and its absence hold for the method and conditions named. In cells and extracts the contact can be indirect. Some results given as binding are weak or reduced against the parent protein; the word gives no strength. For part of these data: Where a sequence is shown, tags or fusion partners need not be part of it.

Protein sequences, listed by entry. Tags and fused reporters are not part of them.
UniProt Q80XI6: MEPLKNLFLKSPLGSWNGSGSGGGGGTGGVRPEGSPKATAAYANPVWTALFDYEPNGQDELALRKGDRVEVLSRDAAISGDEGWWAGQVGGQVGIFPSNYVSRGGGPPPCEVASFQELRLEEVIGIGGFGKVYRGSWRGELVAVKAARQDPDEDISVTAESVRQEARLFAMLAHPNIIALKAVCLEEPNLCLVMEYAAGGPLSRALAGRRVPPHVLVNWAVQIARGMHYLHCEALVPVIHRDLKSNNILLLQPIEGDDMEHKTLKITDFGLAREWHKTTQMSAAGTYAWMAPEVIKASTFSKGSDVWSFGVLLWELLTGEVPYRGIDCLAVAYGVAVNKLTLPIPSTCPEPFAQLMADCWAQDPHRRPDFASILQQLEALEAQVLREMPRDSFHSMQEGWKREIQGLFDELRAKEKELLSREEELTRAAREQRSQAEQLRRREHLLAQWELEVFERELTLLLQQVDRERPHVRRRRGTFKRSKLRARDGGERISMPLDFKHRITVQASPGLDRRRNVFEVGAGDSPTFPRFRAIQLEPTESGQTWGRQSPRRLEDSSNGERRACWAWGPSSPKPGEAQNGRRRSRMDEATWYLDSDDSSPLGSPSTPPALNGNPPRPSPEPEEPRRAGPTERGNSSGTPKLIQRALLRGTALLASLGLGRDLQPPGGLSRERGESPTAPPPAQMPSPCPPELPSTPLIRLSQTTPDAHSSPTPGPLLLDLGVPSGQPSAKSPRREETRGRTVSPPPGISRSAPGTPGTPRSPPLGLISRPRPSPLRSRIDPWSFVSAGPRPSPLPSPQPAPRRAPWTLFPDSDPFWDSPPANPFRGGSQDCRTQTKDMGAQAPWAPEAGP

T1: GST-PKG1α amino acids 1-236 (WT) (UniProt Q13976)
T1 sequence: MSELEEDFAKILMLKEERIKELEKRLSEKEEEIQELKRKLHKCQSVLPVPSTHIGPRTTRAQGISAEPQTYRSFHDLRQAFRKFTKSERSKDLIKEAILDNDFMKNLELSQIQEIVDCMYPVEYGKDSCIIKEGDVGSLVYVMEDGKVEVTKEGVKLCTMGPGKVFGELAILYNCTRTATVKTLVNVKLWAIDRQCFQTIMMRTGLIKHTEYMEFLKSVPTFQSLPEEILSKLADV

T2: GST-PKG1α LZ domain, amino acids 1-59 (WT) (UniProt Q13976)
T2 sequence: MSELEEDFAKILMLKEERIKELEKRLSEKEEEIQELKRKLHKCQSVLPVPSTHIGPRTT


Key:
[1] = target: T1, GST-PKG1α amino acids 1-236 (WT); assay: pull-down; GST fusion protein beads rocked overnight at 4°C with mouse LV lysate, washed 3 times in lysis buffer, Western blot for MLK3; only the target purified
[2] = target: T2, GST-PKG1α LZ domain, amino acids 1-59 (WT); assay: as above
[3] = target: mixed lineage kinase 3 (MLK3), endogenous in mouse left ventricle lysate (mouse (endogenous in LV tissue)) (UniProt Q80XI6); assay: co-IP; 1 mg mouse LV lysate in 1X Cell Lysis Buffer, precleared, 4 ug anti-MLK3 antibody (sc-166639) overnight at 4°C, Protein G beads, 4 washes, blot for PKG1α; LV of WT mice, and of mice after sham surgery vs 7-day transaortic constriction (TAC)

Row | binding [1] | binding [2] | binding [3] | Molecule
1 | binds | binds |  | mixed lineage kinase 3 (MLK3), endogenous in mouse left ventricle lysate (from UniProt Q80XI6 1-850)
2 |  |  | binds | cGMP-dependent protein kinase 1α (PKG1α), endogenous in mouse left ventricle lysate (protein, UniProt P0C605 1-671) MSELEEDFAKILMLKEERIKELEKRLSEKEEEIQELKRKLHKCQSVLPVPSTHIGPRTTRAQGISAEPQTYRSFHDLRQAFRKFTKSERSKDLIKEAILDNDFMKNLELSQIQEIVDCMYPVEYGKDSCIIKEGDVGSLVYVMEDGKVEVTKEGVKLCTMGPGKVFGELAILYNCTRTATVKTLVNVKLWAIDRQCFQTIMMRTGLIKHTEYMEFLKSVPTFQSLPDEILSKLADVLEETHYENGEYIIRQGARGDTFFIISKGQVNVTREDSPSEDPVFLRTLGKGDWFGEKALQGEDVRTANVIAAEAVTCLVIDRDSFKHLIGGLDDVSNKAYEDAEAKAKYEAEAAFFANLKLSDFNIIDTLGVGGFGRVELVQLKSEESKTFAMKILKKRHIVDTRQQEHIRSEKQIMQGAHSDFIVRLYRTFKDSKYLYMLMEACLGGELWTILRDRGSFEDSTTRFYTACVVEAFAYLHSKGIIYRDLKPENLILDHRGYAKLVDFGFAKKIGFGKKTWTFCGTPEYVAPEIILNKGHDISADYWSLGILMYELLTGSPPFSGPDPMKTYNIILRGIDMIEFPKKIAKNAANLIKKLCRDNPSERLGNLKNGVKDIQKHKWFEGFNWEGLRKGTLTPPIIPSVASPTDTSNFDSFPEDSDEPPPDDNSGWDIDF
